# Earlier results in patent US7230011B2, “Benzenesulfonic acid indol-5-yl esters as antagonists of the 5ht6 receptor” (Eli Lilly and Company, priority 2002, dated 2007).
# At least one compound was matched to its structure with a doubt left.
# System: schizophrenics
# Details: multicenter, double blind study in schizophrenics, 6 to 54 weeks; cited from earlier work
structure (smiles),measurement,value
Cc1cc2c(s1)Nc1ccccc1N=C2N1CCN(C)CC1 [olanzapine],cognitive function versus haloperidol or risperidone treatment,statistically significant improvement in cognitive function
